# Results of single-concentration screens

Chains of the proteins cited; added tags and fusions are not shown.
UniProt P9WFT3, whole entry: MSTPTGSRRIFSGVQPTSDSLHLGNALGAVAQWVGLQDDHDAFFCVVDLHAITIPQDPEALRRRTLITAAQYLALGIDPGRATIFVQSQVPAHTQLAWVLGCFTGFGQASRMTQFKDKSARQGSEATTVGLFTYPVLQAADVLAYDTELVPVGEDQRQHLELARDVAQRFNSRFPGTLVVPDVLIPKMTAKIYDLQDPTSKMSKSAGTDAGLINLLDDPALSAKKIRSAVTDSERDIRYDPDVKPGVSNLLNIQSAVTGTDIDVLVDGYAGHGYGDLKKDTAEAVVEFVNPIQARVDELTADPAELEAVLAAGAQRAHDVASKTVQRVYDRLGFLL
UniProt P9WPC5, whole entry: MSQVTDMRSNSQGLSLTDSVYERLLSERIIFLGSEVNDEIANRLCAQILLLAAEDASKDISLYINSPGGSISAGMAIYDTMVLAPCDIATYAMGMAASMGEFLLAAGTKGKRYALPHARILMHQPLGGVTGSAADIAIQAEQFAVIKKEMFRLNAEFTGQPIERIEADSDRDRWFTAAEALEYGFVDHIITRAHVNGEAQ
UniProt P9WPC3, whole entry partner: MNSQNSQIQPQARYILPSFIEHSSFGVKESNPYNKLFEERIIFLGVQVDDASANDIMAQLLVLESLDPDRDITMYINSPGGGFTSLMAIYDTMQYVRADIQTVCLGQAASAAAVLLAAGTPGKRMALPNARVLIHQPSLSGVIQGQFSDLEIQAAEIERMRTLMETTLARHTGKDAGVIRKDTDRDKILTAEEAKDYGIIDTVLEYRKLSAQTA

Source: ChEMBL document CHEMBL3988442, “University of Dundee, Small-Polar-MMV Screening Library” (2021).

MtTrpRS: 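Enzyme assay of tryptophanyl-tRNA synthetase; the read-out is not stated. Target: Tryptophan-tRNA ligase, Mycobacterium tuberculosis (UniProt P9WFT3). Tested at 10 µM. Higher most likely means stronger inhibition; the record gives no direction and few retests gave an IC50. Size under these conditions: about 65,000 compounds, about 64 of them at 50% or above in at least one test.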
ClpP1P2: 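ClpP1P2, Mycobacterium tuberculosis (UniProt P9WPC5 and UniProt P9WPC3). Protease assay of ClpP1P2, read by the AMC dye that it sets free. Tested at 50 µM. Higher reads as stronger inhibition, judged from the few compounds that gave an IC50. Most other retested compounds had strongly negative values. About 69,000 compounds were tested under these conditions; 0.015% (about 10) showed 50% or more at least once.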

Each number is a percent effect as filed.
How 0% and 100% were set is not recorded. Most values in the screen are low, and negative values occur.
The compounds are a random part of those screened.

{"smiles": "Cc1ccc(O)c(CNc2cccc(CN3CCN(C)CC3)c2)n1", "MtTrpRS": -3.608, "ClpP1P2": -5.451}
{"smiles": "CC(C)CCC(=O)N1CCN(C(=O)c2ccc(-n3cccn3)cc2)CC1", "MtTrpRS": -6.164, "ClpP1P2": 0.3794}
{"smiles": "O=S(=O)(Nc1cnc(N2CCOCC2)nc1)c1ccc(C(F)(F)F)cc1", "MtTrpRS": 5.126, "ClpP1P2": -12.41}
{"smiles": "CCc1ccc(CN(Cc2ccco2)C(C)C(C)C)nc1", "stereo": "stereo unspecified", "MtTrpRS": 1.633, "ClpP1P2": -11.94}
{"smiles": "CN(C)c1ccc(NC(=O)NCC2CCOC2)cn1", "stereo": "stereo unspecified", "MtTrpRS": -13.5, "ClpP1P2": -46.17}
{"smiles": "COc1cccc(COCC(=O)N2CCCC(n3ccnc3)C2)c1", "stereo": "stereo unspecified", "MtTrpRS": -3.678, "ClpP1P2": 10.19}
{"smiles": "c1cnc(N2CCO[C@H]3CN(Cc4csnn4)C[C@H]32)nc1", "MtTrpRS": 3.374, "ClpP1P2": 0.09981}
{"smiles": "COC1CC2(CCN(Cc3nccn3C)CC2)C1", "MtTrpRS": -0.07374, "ClpP1P2": 7.882}
{"smiles": "O=C(CC1CC1)N1CCC2(CC1)CN(Cc1cccnc1)C(=O)CO2", "MtTrpRS": -3.483, "ClpP1P2": 10.26}
{"smiles": "CN(C)C(=O)C(C)(C)c1ccc2c(c1)OCCO2", "MtTrpRS": -1.651, "ClpP1P2": -6.05}
{"smiles": "O=C(CC1CC1)N[C@@H]1CN(c2ncccn2)C[C@@H]2CCCO[C@@H]21", "MtTrpRS": -0.8137, "ClpP1P2": -5.96}
{"smiles": "CC(C(=O)NCc1ccc(N2CCCCC2)nc1)n1cncn1", "stereo": "stereo unspecified", "MtTrpRS": -6.224, "ClpP1P2": -6.471}
{"smiles": "Cc1ccccc1C1(C(=O)NCCN2CCCC2)CCOCC1", "MtTrpRS": 1.487, "ClpP1P2": 14.56}
{"smiles": "CN(C)CCN1CC2(CCCN(c3ncc(Cl)cc3F)C2)CCC1=O", "stereo": "stereo unspecified", "MtTrpRS": -3.311, "ClpP1P2": -12.49}
{"smiles": "COCC1CN(C(=O)C2=CCCC2)Cc2cnn(CC3CC3)c21", "stereo": "stereo unspecified", "MtTrpRS": 0.07969, "ClpP1P2": 0.08621}
{"smiles": "Cn1cc(C(=O)CC2CCCN2C(=O)c2ccn3ccnc3c2)cn1", "stereo": "stereo unspecified", "MtTrpRS": 2.517, "ClpP1P2": 0.5582}
{"smiles": "CCc1nc(CC(=O)Nc2cnn(CC3CCCO3)c2)cs1", "stereo": "stereo unspecified", "MtTrpRS": 4.102, "ClpP1P2": -14.05}
{"smiles": "Fc1ccc2[nH]c(C3CCCN3CCc3ccccn3)nc2c1", "stereo": "stereo unspecified", "MtTrpRS": 1.562, "ClpP1P2": -1.446}
{"smiles": "CNc1ccc(CC2CCCN(C(=O)c3cnc(C)nc3)C2)nn1", "stereo": "stereo unspecified", "MtTrpRS": -5.583, "ClpP1P2": 14.89}
{"smiles": "OC1CCCOC12CCN(Cc1nnc(-c3cccnc3)o1)CC2", "stereo": "stereo unspecified", "MtTrpRS": -1.201, "ClpP1P2": 9.546}
{"smiles": "CCNc1ccnc(N2Cc3cnc(CC(C)C)nc3C2)n1", "MtTrpRS": 0.3846, "ClpP1P2": -9.846}
{"smiles": "CC(C)N1CCC(C(=O)N(C)C(C)c2ccon2)CC1", "stereo": "stereo unspecified", "MtTrpRS": -0.7692, "ClpP1P2": -13.09}
{"smiles": "Cc1ccc(F)c2c1CCCN2C(=O)c1cn(CC(=O)N(C)C)nn1", "MtTrpRS": -0.8223, "ClpP1P2": -23.56}
{"smiles": "O=C(c1ccno1)N1CCC2(CC1)C(=O)Nc1ccccc12", "MtTrpRS": -6.882, "ClpP1P2": -2.731}

Once more, the final 3:

SMILES	MtTrpRS	ClpP1P2
CC(C)N1CCC(C(=O)N(C)C(C)c2ccon2)CC1 (stereo unspecified)	-0.7692	-13.09
Cc1ccc(F)c2c1CCCN2C(=O)c1cn(CC(=O)N(C)C)nn1	-0.8223	-23.56
O=C(c1ccno1)N1CCC2(CC1)C(=O)Nc1ccccc12	-6.882	-2.731